Measurements published in publication PMC9135340.
Results are given in words; binding and its absence hold for the method and conditions named. In cells and extracts the contact can be indirect. Some results given as binding are weak or reduced against the parent protein; the word gives no strength.

Sequences of proteins named here, by UniProt entry; tags and fusion partners are left off.
UniProt Q2GI62: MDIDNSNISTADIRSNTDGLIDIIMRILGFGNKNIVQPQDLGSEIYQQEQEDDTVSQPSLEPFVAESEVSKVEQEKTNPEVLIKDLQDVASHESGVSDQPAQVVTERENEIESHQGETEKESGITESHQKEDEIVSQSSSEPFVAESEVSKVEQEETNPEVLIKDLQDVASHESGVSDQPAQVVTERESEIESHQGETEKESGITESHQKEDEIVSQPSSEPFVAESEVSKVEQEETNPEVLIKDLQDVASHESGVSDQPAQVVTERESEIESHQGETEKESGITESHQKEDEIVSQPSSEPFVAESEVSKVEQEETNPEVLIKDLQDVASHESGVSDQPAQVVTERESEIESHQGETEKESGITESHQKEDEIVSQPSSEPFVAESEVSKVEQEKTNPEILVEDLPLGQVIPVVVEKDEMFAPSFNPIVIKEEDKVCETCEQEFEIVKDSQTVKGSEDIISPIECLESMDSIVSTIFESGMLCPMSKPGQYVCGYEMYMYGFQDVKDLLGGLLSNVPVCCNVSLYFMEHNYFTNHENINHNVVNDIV

Target: T1, Patched-2 (PTCH2), endogenous in THP-1 cells (human (endogenous in THP-1)) (UniProt Q9Y6C5)
T1 sequence: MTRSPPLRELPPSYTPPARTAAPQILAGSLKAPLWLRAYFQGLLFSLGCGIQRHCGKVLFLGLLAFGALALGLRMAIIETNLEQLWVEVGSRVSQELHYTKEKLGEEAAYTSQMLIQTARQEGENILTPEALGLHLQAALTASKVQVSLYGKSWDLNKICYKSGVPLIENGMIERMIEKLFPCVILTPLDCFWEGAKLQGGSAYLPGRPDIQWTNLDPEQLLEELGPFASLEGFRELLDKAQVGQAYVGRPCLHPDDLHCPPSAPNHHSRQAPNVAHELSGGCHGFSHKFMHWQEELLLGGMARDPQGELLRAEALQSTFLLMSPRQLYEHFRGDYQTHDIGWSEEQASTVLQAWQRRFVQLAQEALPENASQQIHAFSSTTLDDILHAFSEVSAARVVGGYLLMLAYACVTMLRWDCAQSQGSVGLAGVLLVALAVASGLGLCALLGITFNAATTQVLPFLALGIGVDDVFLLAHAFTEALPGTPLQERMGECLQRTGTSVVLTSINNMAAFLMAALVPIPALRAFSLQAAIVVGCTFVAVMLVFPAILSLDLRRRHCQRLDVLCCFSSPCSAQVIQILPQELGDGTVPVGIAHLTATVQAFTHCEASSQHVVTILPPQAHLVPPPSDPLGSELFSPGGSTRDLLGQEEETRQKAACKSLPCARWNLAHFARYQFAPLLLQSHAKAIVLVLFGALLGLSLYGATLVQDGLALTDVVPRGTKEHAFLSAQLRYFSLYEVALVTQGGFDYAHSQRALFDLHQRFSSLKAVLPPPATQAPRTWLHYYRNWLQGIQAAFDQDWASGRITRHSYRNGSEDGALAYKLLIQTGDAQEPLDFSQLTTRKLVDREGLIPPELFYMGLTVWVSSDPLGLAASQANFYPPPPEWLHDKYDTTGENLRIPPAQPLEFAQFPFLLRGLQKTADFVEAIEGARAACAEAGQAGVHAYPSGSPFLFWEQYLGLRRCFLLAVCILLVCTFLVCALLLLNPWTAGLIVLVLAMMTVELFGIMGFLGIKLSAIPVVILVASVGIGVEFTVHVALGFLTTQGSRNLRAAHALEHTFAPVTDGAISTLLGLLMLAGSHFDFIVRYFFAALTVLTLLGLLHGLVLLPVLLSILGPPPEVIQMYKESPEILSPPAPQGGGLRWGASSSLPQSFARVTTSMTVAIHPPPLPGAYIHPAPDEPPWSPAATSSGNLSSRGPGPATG
Experiment: co-IP; Pierce Crosslink IP Kit; lysate of THP-1 cells infected with E. chaffeensis (MOI 100, 24 h); IP with TRP120-I1 or PTCH2 antibody (reverse), blot for TRP120 or PTCH2; normal rabbit IgG as control

E. chaffeensis TRP120 (native, in infected THP-1 cells) (from UniProt Q2GI62 1-548)
binding: binds
